Source: paper PMC7862700
This is a selection; strong and weak results do not stand in their true shares. For part of these data: At the low end of the ranking the order means little. The list shows a part of the results. For part of these data: Construct or isoform of the protein are uncertain.

How the values were obtained:
Test in all cases: DAPPL (digital affinity profiling via proximity ligation, sequencing)
Conditions in all cases: 10 mM Tris-HCl pH 7.5, 50 mM NaCl, 1 mM DTT, 4% glycerol, room temperature, 30 min; GST-TFs on glutathione beads, 16-mer random dsDNA library, 0.1% …; high values mean tight binding; double strand, one strand shown; scale: fold enrichment (6-mer frequency, TF over GST control)
GABPA = target: T1, GABPA (UniProt Q06546)
T1 sequence: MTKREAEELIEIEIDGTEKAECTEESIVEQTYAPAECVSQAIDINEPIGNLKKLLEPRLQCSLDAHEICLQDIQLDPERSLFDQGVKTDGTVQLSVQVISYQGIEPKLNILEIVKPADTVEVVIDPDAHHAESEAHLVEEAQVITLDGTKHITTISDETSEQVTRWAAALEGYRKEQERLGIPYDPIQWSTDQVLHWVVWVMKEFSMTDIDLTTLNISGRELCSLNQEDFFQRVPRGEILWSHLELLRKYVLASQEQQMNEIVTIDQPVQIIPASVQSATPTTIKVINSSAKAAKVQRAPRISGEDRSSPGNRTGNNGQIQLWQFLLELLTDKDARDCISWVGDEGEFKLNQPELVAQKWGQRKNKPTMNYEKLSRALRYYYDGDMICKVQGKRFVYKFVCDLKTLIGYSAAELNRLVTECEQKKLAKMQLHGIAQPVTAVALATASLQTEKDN

ETS1 = target: T2, ETS1 (UniProt P14921)
T2 sequence: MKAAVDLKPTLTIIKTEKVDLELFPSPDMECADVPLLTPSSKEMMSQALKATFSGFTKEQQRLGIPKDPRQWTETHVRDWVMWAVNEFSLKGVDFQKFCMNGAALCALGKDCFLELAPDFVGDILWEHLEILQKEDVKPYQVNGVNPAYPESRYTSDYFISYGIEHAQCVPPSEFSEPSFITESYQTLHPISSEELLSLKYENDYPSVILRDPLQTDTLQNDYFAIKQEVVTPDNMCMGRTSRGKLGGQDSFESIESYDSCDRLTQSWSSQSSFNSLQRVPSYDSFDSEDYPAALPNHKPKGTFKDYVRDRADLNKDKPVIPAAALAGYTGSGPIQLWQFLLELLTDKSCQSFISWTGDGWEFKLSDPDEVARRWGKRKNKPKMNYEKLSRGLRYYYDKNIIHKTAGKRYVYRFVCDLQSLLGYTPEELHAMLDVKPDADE

SPDEF = target: T3, SPDEF (UniProt O95238)
T3 sequence: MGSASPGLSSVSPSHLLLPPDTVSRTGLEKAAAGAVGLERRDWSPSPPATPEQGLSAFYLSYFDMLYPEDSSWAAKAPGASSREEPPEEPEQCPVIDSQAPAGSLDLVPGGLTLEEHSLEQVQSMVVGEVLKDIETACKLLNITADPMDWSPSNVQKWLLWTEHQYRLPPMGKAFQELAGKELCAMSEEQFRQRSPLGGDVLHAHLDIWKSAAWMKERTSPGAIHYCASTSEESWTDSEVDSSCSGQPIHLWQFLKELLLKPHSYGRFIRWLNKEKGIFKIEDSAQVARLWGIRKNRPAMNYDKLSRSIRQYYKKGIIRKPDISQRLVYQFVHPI

| Sequence | binding signal (GABPA) | binding signal (ETS1) | binding signal (SPDEF) |
| --- | --- | --- | --- |
| ACCCAG | 0.621 | 0.717 | 0.663 |
| TGAGTT | 0.417 | 0.398 | 0.403 |
| GGTCCG | 0.832 | 0.741 | 0.996 |
| CAGGGC | 0.815 | 0.762 | 0.764 |
| CAGGAC | 0.822 | 0.789 | 0.862 |
| AGATTG | 0.85 | 0.883 | 0.733 |
| CGCATT | 0.781 | 0.787 | 0.764 |
| CCGAGA | 0.677 | 0.622 | 0.621 |
| CAGTTA | 0.741 | 0.758 | 0.811 |
| GAGTAA | 0.568 | 0.564 | 0.539 |
| GGAGGC | 0.267 | 0.258 | 0.229 |
| TGGACG | 0.871 | 0.944 | 0.746 |
| ACGCAT | 0.833 | 0.78 | 0.886 |
| AGACGC | 0.77 | 0.695 | 0.659 |
| GCGAGG | 0.602 | 0.605 | 0.627 |
| GGACAA | 0.848 | 0.863 | 0.818 |
| CAAAGG | 0.907 | 0.831 | 0.794 |
| GATAGA | 0.804 | 0.779 | 0.83 |
| GGAAGG | 0.83 | 0.765 | 0.754 |
| TCGGTT | 0.868 | 0.836 | 0.762 |
| CCAGGC | 0.426 | 0.456 | 0.368 |
| GCGGTT | 0.775 | 0.67 | 0.784 |
| AAACGT | 0.927 | 0.952 | 0.938 |
| GGGCCC | 0.937 | 0.812 | 0.829 |

At a glance, some entries already given:

| Sequence | binding signal (GABPA) | binding signal (ETS1) | binding signal (SPDEF) |
| --- | --- | --- | --- |
| TGGACG | 0.871 | 0.944 | 0.746 |
| ACGCAT | 0.833 | 0.78 | 0.886 |
| AGACGC | 0.77 | 0.695 | 0.659 |

Remaining list, next part.

| Sequence | binding signal (GABPA) | binding signal (ETS1) | binding signal (SPDEF) |
| --- | --- | --- | --- |
| GCATAA | 0.777 | 0.81 | 0.82 |
| GTCAGA | 0.641 | 0.624 | 0.584 |
| GTAACG | 0.842 | 0.887 | 0.983 |
| CCAGTT | 0.647 | 0.623 | 0.582 |
| AGTCAA | 0.612 | 0.621 | 0.57 |
| GTAAGG | 0.705 | 0.725 | 0.742 |
| GGGACC | 0.705 | 0.652 | 0.716 |
| TGAGAT | 0.754 | 0.675 | 0.686 |
| GGGACG | 0.462 | 0.449 | 0.478 |
| ACCGCG | 0.838 | 0.868 | 0.835 |
| CTGAGA | 0.805 | 0.766 | 0.741 |
| AGTTCG | 0.76 | 0.828 | 0.653 |
| GGTGTG | 0.712 | 0.708 | 0.645 |
| AGGGGG | 0.608 | 0.585 | 0.609 |
| AGGCAA | 0.74 | 0.676 | 0.655 |
| CGTGTG | 0.438 | 0.39 | 0.449 |
| AAGGCG | 0.692 | 0.646 | 0.666 |
| CGGTGT | 0.679 | 0.694 | 0.795 |
| AGACCG | 0.505 | 0.451 | 0.484 |
| GGTTGG | 0.701 | 0.66 | 0.677 |
| CCGTGA | 0.185 | 0.197 | 0.222 |
| CAACGT | 0.857 | 0.893 | 0.841 |
| CGCAAG | 0.853 | 0.817 | 0.779 |
| AGACTA | 0.768 | 0.74 | 0.74 |

| Sequence | binding signal (GABPA) | binding signal (ETS1) | binding signal (SPDEF) |
| --- | --- | --- | --- |
| TGAGTG | 0.518 | 0.417 | 0.451 |
| GTGATC | 0.868 | 0.786 | 0.905 |
| CCGGGG | 0.791 | 0.72 | 0.908 |
| AGGGGC | 0.745 | 0.761 | 0.695 |
| GGGATC | 0.649 | 0.657 | 0.752 |
| CAGCAG | 0.811 | 0.837 | 0.786 |
| GTGGAC | 0.919 | 0.935 | 0.825 |
| GTAAGT | 0.764 | 0.728 | 0.691 |
| TGAGAG | 0.541 | 0.532 | 0.598 |
| GCGCAT | 0.826 | 0.872 | 0.816 |
| GGTGAG | 0.349 | 0.342 | 0.345 |
| CGGTTG | 0.722 | 0.692 | 0.907 |
| CAGACC | 0.828 | 0.767 | 0.817 |
| GGCAAA | 0.91 | 0.907 | 0.94 |
| GTAGAC | 0.762 | 0.741 | 0.791 |
| TAGCCG | 0.891 | 0.945 | 0.934 |
| TAAGTG | 0.783 | 0.801 | 0.794 |
| GATTGA | 0.968 | 0.975 | 0.916 |
| ACACAG | 0.956 | 0.986 | 0.936 |
| GCAAGG | 0.771 | 0.857 | 0.735 |
| CGGACT | 0.84 | 0.778 | 0.886 |
| AAGAGT | 0.95 | 0.837 | 0.789 |
| CGCGAG | 0.547 | 0.507 | 0.511 |
| GACGCA | 0.586 | 0.535 | 0.542 |

| Sequence | binding signal (GABPA) | binding signal (ETS1) | binding signal (SPDEF) |
| --- | --- | --- | --- |
| AGTCGC | 0.488 | 0.505 | 0.485 |
| GGTCGG | 0.268 | 0.264 | 0.252 |
| GGAGCG | 0.404 | 0.386 | 0.322 |
| ACGAGT | 0.78 | 0.823 | 0.72 |
| TGTGGG | 0.836 | 0.816 | 0.737 |
| CGGCGA | 0.766 | 0.683 | 0.678 |
| TAGGAC | 0.872 | 0.842 | 0.856 |
| CAGTGG | 0.521 | 0.506 | 0.39 |
| CGGGTC | 0.577 | 0.755 | 0.917 |
| CAGGGT | 0.859 | 0.865 | 0.75 |
| GTCGTC | 0.75 | 0.746 | 0.845 |
| GGTGTC | 0.788 | 0.893 | 0.888 |
| GATCGC | 0.868 | 0.87 | 0.779 |
| GTTGTG | 0.975 | 0.877 | 0.925 |
| GAGCGT | 0.343 | 0.352 | 0.345 |
| AGACTG | 0.538 | 0.519 | 0.484 |
| GAAGAG | 0.935 | 0.837 | 0.81 |
| AGGGTA | 0.946 | 0.915 | 0.813 |
| GTGCGG | 0.623 | 0.649 | 0.614 |
| GACGAA | 0.88 | 0.857 | 0.864 |
| GCCAGC | 0.753 | 0.676 | 0.73 |
| TCGTGG | 0.745 | 0.814 | 0.636 |
| AAGCGT | 0.878 | 0.887 | 0.829 |
| ACGGGC | 0.837 | 0.78 | 0.822 |

Record cards, as listed above. Values in the order: binding signal (GABPA) | binding signal (ETS1) | binding signal (SPDEF)
TAGGAC as listed: 0.872 | 0.842 | 0.856
AGACTG as listed: 0.538 | 0.519 | 0.484

Later entries:

| Sequence | binding signal (GABPA) | binding signal (ETS1) | binding signal (SPDEF) |
| --- | --- | --- | --- |
| GCGCTA | 0.946 | 1.01 | 0.915 |
| GTCGGG | 0.23 | 0.227 | 0.226 |
| GTGTGC | 0.849 | 0.832 | 0.749 |
| CAAGAG | 0.818 | 0.765 | 0.725 |
| ACGGAG | 0.39 | 0.381 | 0.36 |
| GACAAG | 0.804 | 0.789 | 0.739 |
| AGCCGC | 0.79 | 0.793 | 0.814 |
| ATCGGT | 0.692 | 0.722 | 0.64 |
| TGGGAG | 0.461 | 0.403 | 0.396 |
| GGCCCG | 0.806 | 0.73 | 0.808 |
| GGATAG | 0.739 | 0.748 | 0.815 |
| ACAGTA | 0.903 | 0.833 | 0.88 |
| TGCAGT | 0.881 | 0.812 | 0.866 |
| GTCAGT | 0.613 | 0.607 | 0.602 |
| GCCAGG | 0.468 | 0.446 | 0.416 |
| GGGGAT | 0.681 | 0.646 | 0.653 |
| GCCAGT | 0.328 | 0.316 | 0.308 |
| GGTTGA | 0.821 | 0.815 | 0.807 |
| GCACCG | 0.689 | 0.698 | 0.715 |
| GGAGGA | 0.246 | 0.264 | 0.23 |
| GTAGTA | 0.896 | 0.986 | 0.942 |
| GGGAAG | 0.808 | 0.857 | 0.73 |
| GTACGT | 0.856 | 0.947 | 0.869 |
| TCGGCG | 0.523 | 0.508 | 0.465 |
